No constants are given. Whether binding was seen depends on the method and setting. Some results given as binding are weak or reduced against the parent protein; the word gives no strength.

Chains of the proteins cited; added tags and fusions are not shown. Lines headed by an entry give the natural chain unless they say otherwise; changes in a name come on top. Residues count along the entry.
UniProt P13608, residues 17-2364: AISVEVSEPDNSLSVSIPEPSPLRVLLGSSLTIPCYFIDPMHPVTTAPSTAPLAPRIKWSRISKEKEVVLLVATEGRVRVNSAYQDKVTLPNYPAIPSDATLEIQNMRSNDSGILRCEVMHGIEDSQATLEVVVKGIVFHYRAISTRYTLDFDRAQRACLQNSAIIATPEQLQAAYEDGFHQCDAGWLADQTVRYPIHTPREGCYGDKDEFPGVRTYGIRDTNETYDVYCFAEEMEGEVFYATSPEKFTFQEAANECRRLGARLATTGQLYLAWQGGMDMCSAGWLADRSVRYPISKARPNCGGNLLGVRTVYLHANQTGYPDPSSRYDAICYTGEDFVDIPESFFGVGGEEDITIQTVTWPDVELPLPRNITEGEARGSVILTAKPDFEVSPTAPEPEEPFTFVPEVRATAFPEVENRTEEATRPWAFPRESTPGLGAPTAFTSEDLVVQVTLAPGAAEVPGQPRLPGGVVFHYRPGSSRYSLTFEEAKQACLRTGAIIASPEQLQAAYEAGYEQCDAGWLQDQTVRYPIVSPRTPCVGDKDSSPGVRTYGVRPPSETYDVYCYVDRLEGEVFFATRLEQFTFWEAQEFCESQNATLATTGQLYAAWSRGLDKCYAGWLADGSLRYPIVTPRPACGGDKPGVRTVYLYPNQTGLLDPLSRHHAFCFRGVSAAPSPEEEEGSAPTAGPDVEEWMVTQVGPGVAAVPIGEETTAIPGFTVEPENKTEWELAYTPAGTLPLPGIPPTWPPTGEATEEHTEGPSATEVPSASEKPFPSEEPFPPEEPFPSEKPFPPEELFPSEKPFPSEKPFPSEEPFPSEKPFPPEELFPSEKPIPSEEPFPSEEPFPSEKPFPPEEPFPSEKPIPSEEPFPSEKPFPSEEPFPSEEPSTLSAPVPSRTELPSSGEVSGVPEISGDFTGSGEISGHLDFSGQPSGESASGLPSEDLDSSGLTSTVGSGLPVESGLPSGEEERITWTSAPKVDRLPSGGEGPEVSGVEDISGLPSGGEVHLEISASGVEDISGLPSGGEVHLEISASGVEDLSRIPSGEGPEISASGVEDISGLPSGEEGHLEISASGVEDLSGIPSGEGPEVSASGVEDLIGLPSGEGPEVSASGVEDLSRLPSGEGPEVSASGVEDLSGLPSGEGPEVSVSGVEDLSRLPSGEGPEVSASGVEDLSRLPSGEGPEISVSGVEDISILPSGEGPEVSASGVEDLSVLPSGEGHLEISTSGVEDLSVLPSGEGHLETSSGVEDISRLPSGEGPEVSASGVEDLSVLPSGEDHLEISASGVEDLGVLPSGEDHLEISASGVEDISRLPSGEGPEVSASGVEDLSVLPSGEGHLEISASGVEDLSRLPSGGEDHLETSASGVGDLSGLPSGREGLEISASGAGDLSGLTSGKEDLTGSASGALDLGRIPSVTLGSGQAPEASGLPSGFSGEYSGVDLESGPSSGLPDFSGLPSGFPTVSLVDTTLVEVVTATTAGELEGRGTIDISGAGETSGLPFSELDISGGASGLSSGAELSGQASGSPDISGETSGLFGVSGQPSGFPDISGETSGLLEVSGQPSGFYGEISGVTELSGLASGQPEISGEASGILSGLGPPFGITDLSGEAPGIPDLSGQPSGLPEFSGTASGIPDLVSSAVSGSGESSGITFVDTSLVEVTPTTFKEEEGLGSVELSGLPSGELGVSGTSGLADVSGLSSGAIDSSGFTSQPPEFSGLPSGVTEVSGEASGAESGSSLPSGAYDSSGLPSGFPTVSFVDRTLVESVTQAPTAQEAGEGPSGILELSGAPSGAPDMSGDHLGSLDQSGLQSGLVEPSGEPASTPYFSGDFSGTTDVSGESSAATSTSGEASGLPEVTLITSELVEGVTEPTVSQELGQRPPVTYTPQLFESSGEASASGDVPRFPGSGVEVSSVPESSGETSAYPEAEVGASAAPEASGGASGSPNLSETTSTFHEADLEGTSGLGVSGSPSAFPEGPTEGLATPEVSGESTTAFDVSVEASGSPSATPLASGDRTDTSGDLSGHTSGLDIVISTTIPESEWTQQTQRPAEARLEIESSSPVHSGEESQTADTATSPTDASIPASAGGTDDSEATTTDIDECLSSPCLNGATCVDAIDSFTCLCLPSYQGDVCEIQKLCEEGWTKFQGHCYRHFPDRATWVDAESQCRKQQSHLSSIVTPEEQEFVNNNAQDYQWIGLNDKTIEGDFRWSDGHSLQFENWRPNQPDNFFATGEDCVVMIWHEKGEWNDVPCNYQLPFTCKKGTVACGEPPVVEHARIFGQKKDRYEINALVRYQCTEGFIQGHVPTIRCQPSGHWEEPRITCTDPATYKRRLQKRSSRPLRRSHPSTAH
UniProt P01308: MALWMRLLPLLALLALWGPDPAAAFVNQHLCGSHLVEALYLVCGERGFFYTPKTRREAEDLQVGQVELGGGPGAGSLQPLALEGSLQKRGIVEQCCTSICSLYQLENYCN

These results are taken from patent US20260174677A1, “METHODS OF TREATING INSULIN RESISTANCE AND ASSOCIATED DISORDERS” (The University of Melboune, priority 2022, published 2026).

The target in this experiment is purified aggrecan (A1960, Merck Millipore) (UniProt P13608). The experiment is described as follows: in vitro plate binding assay; aggrecan coated at 10 ug/ml, insulin-FITC 5 ng/ml-1 mg/ml for 2 h, read at 495 nm.

In the case of “fluorescein isothiocyanate tagged insulin (insulin-FITC) (from UniProt P01308 25-54; P01308 90-110) (peptide)”, the binding entry was “binds”.
